Data from paper PMC8511950.
These are yes or no findings as the source states them, for the method shown. In cells and extracts the contact can be indirect. A yes stands for co-enrichment or nearness to the bait. Other partners may have been found.

By UniProt entry, the sequences of proteins in these tests, tags left out.
UniProt P16370: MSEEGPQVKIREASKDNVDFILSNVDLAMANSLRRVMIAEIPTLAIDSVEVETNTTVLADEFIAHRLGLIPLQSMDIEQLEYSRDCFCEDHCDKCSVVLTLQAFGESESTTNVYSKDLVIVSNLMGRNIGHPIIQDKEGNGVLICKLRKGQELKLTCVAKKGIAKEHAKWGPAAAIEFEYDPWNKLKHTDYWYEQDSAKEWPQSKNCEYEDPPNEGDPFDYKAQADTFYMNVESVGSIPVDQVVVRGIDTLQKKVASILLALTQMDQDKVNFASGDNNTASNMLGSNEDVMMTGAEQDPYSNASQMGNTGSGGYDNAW

Molecular target: Rpb3 with C-terminal BioTAP tag (S. cerevisiae) (UniProt P16370)
Assay: affinity purification with mass spectrometry; BioTAP-XL two-step purification of Rpb3-BioTAP (IgG beads, then streptavidin agarose) from 1% formaldehyde-cross-linked wildtype and spt6-1004 cells shifted to 37 °C for 80 min; on-bead trypsin digestion, TMT labelling, MS3 quantification; untagged wildtype and spt6-1004 cells as controls; FDR cutoff 0.05

Binder	binding
Tsr1 (protein, UniProt Q07381 1-788) MAGHSHRSSLKNGHKSYKSKHASKGALKRLYKGKVEKEPVGTGKPDKQVSKLQRKNKAKQLRAQRILDSIENRKLFEGKNGAAKIITIVPLVNDLDPLDILYKLLKCADDEGIMVQEVDSKRIFNVHIKKFKSNLKIIIPDMTNFLNILDCAKVADFVVFGLSGVQEVDEEFGEQIIRALELQGIASYIGVISNLSAVHEKEKFQLDVKQSLESYFKHFFPSEERVYNLEKNSDALNVLRTLCQRLPRSINWRDNRGYVVADFVDFVETSPDSGDLVIEGTVRGIGFNANRLVHIPDFGDFQLNKIEKISESSQKRKIIKEKATDSLSLELDLQTVFESNMNRDTLDEYAPEGTEDWSDYDEDFEYDGLTTARYDDHGFLPGREQTSKKAAVPKGTSDYQAKWYLDDVIDANEEEEAEQTNGKDETMMEIDDEMMVEQDNEEVAGDEEYDIEDNEGFEELSPEEEERQLREFRDMEKEDREFPDEIELEPSESAIERLKRYRGLKNLYNCDWQVDEKDPSSPAEWKRLLRIGNYKNTKNRIIKETKNEAQAIAGDRIRMFIRFPKFLLEKIQDPKQLLFAVYGLLLHEHKNAVVNFSLQRWEQYDKPVPSQEPIVVQYGVRRYTIQPLFSQGSNSPNNVHKYERFLHPDTVSVATCIAPVDFTQSPAIFFKPSPTDAKNIELIGHGTFLNADHSRILAKRAILTGHPFRFHKTVVTVRYMFFRPEDVEWFKSIPLFTKSGRSGFIKESLGTHGYFKATFDGKLSAQDVVAMSLYKRMWPMPSLPWNGM	binds
Ebp2 (protein, UniProt P36049 1-427) MAKGFKLKELLSHQKEIEKAEKLENDLKKKKSQELKKEEPTIVTASNLKKLEKKEKKADVKKEVAADTEEYQSQALSKKEKRKLKKELKKMQEQDATEAQKHMSGDEDESGDDREEEEEEEEEEEGRLDLEKLAKSDSESEDDSESENDSEEDEDVVAKEESEEKEEQEEEQDVPLSDVEFDSDADVVPHHKLTVNNTKAMKHALERVQLPWKKHSFQEHQSVTSETNTDEHIKDIYDDTERELAFYKQSLDAVLVARDELKRLKVPFKRPLDYFAEMVKSDEHMDKIKGKLIEEASDKKAREEARRQRQLKKFGKQVQNATLQKRQLEKRETLEKIKSLKNKRKHNEIDHSEFNVGVEEEVEGKRFDRGRPNGKRAAKNAKYGQGGMKRFKRKNDATSSADVSGFSSRKMKGKTNRPGKSRRARRF	binds
Rpl8B (protein, UniProt P29453 1-256) MAPGKKVAPAPFGAKSTKSNKAKNPLTHSTPKNFGIGQAVQPKRNLSRYVKWPEYVRLQRQKKILSIRLKVPPTIAQFQYTLDRNTAAETFKLFNKYRPETAAEKKERLTKEAAAIAEGKSKQDASPKPYAVKYGLNHVVSLIENKKAKLVLIANDVDPIELVVFLPALCKKMGVPYAIIKGKARLGTLVNQKTSAVAALTEVRAEDEAALAKLVSTIDANFADKYDEVKKHWGGGILGNKAQAKMDKRAKTSDSA	binds
Bur2 (protein, UniProt Q05949 1-395) MSATSSSGDVKKFQAVPKPTSNASPPPASSGFNARTLWPDLIETPENQWVFECKDIIEKIGTNGPIAVEIKKNMEKCLMYFYTLKKKLNLFDHTYTASCILFYRYWFIYGIPTAITECIHISQGILVTACKTMENNRPIEAYIKATCEFLMQNIPSLKSRTNIDKLKWEFRDKLVTNEKKILCLFGFDLNISNPKELIEEVFSGYYRFNRDHNLPENFKKAFPKILQESRNFMVQAVTQPVSLLCDGYTFIVLSLIYCGLEYKKLVDKDFRYPKNFFKDRFPIEVTPENFANIFTDYKLLEENFFNLKSNKGAKLQIDSSMIDSVIDESGDVENEVSEISDPFNYELIKSGEVKEEFLNHIETRVKDLLDKAKQESMKRKAKDPIRTPDAKKPKI	binds
Spn1 (protein, UniProt Q06505 1-410) MSTADQEQPKVVEATPEDGTASSQKSTINAENENTKQNQSMEPQETSKGTSNDTKDPDNGEKNEEAAIDENSNVEAAERKRKHISTDFSDDDLEKEEHNDQSLQPTVENRASKDRDSSATPSSRQELEEKLDRILKKPKVRRTRRDEDDLEQYLDEKILRLKDEMNIAAQLDIDTLNKRIETGDTSLIAMQKVKLLPKVVSVLSKANLADTILDNNLLQSVRIWLEPLPDGSLPSFEIQKSLFAALNDLPVKTEHLKESGLGRVVIFYTKSKRVEAQLARLAEKLIAEWTRPIIGASDNYRDKRIMQLEFDSEKLRKKSVMDSAKNRKKKSKSGEDPTSRGSSVQTLYEQAAARRNRAAAPAQTTTDYKYAPVSNLSAVPTNARAVGVGSTLNNSEMYKRLTSRLNKKHK	binds
Nqm1 (protein, UniProt P53228 1-333) MSEPSEKKQKVATSSLEQLKKAGTHVVADSGDFEAISKYEPQDSTTNPSLILAASKLEKYARFIDAAVEYGRKHGKTDHEKIENAMDKILVEFGTQILKVVPGRVSTEVDARLSFDKKATVKKALHIIKLYKDAGVPKERVLIKIASTWEGIQAARELEVKHGIHCNMTLLFSFTQAVACAEANVTLISPFVGRIMDFYKALSGKDYTAETDPGVLSVKKIYSYYKRHGYATEVMAASFRNLDELKALAGIDNMTLPLNLLEQLYESTDPIENKLNSESAKEEGVEKVSFINDEPHFRYVLNEDQMATEKLSDGIRKFSADIEALYKLVEEKM	binds
Rep1 (protein, UniProt P03871 1-373) MNGERLLACIKQCIMQHFQPMVYDESRCVIETTRGTFPVPDNYKKYKTLAFAFVGHVLNTDDTPVIEKELDWPDPALVYNTIVDRIINHPELSQFISVAFISQLKATIGEGLDINVKGTLNRRGKGIRRPKGVFFRYMESPFVNTKVTAFFSYLRDYNKIASEYHNNTKFILTFSCQAYWASGPNFSALKNVIRCSIIHEYISKFVEREQDKGHIGDQELPPEEDPSRELNNVQHEVNSLTEQDAEADEGLWGEIDSLCEKWQSEAEDQTEAEIIADRIIGNSQRMANLKIRRTKFKSVLYHILKELIQSQGTVKVYRGSSFSHDSIKISLHYEEQHITAVWVYLTVKFEEHWKPVDVEVEFRCKFKERKVDG	binds
Rep2 (protein, UniProt P03872 1-296) MDDIETAKNLTVKARTAYSVWDVCRLFIEMIAPDVDIDIESKRKSDELLFPGYVIRPMESLTTGRPYGLDSSAEDSSVSSDSSAEVILPAAKMVKERFDSIGNGMLSSQEASQAAIDLMLQNNKLLDNRKQLYKSIAIIIGRLPEKDKKRATEMLMRKMDCTQLLVPPAPTEEDVMKLVSVVTQLLTLVPPDRQAALIGDLFIPESLKDIFNSFNELAAENRLQQKKSELEGRTEVNHANTNEEVPSRRTRSRDTNARGAYKLQNTITEGPKAVPTKKRRVATRVRGRKSRNTSRV	binds
Orc4 (protein, UniProt P54791 1-529) MTISEARLSPQVNLLPIKRHSNEEVEETAAILKKRTIDNEKCKDSDPGFGSLQRRLLQQLYGTLPTDEKIIFTYLQDCQQEIDRIIKQSIIQKESHSVILVGPRQSYKTYLLDYELSLLQQSYKEQFITIRLNGFIHSEQTAINGIATQLEQQLQKIHGSEEKIDDTSLETISSGSLTEVFEKILLLLDSTTKTRNEDSGEVDRESITKITVVFIFDEIDTFAGPVRQTLLYNLFDMVEHSRVPVCIFGCTTKLNILEYLEKRVKSRFSQRVIYMPQIQNLDDMVDAVRNLLTVRSEISPWVSQWNETLEKELSDPRSNLNRHIRMNFETFRSLPTLKNSIIPLVATSKNFGSLCTAIKSCSFLDIYNKNQLSNNLTGRLQSLSDLELAILISAARVALRAKDGSFNFNLAYAEYEKMIKAINSRIPTVAPTTNVGTGQSTFSIDNTIKLWLKKDVKNVWENLVQLDFFTEKSAVGLRDNATAAFYASNYQFQGTMIPFDLRSYQMQIILQELRRIIPKSNMYYSWTQL	binds
Sis1 (protein, UniProt P25294 1-352) MVKETKLYDLLGVSPSANEQELKKGYRKAALKYHPDKPTGDTEKFKEISEAFEILNDPQKREIYDQYGLEAARSGGPSFGPGGPGGAGGAGGFPGGAGGFSGGHAFSNEDAFNIFSQFFGGSSPFGGADDSGFSFSSYPSGGGAGMGGMPGGMGGMHGGMGGMPGGFRSASSSPTYPEEETVQVNLPVSLEDLFVGKKKSFKIGRKGPHGASEKTQIDIQLKPGWKAGTKITYKNQGDYNPQTGRRKTLQFVIQEKSHPNFKRDGDDLIYTLPLSFKESLLGFSKTIQTIDGRTLPLSRVQPVQPSQTSTYPGQGMPTPKNPSQRGNLIVKYKVDYPISLNDAQKRAIDENF	binds
Rex3 (protein, UniProt Q12090 1-404) MGSLLRPVDLVNQPLGFQERYKILQKLFKQLQKAYAHTKGTNIDLERLATRLEVHVAKNSLSGQSYKFNMSILLRDVLKYKGDLSKIKINGRPLKGAKPHLSSIGNANSITTKSKAMEALKALILDSKVLEKNGYIVKEMQNKTNDDNSTQLYAPCLRCSSNFKKTDIMEKTLCRYHPLKRIYNRDTKNHQYPCCGETTDSVSFLRLGCKTFFHHVFRGESYDELCKISKFSSTDDIDGVENVLSLDCEMAFTSLGYEMIRLTIVDFFTGKTLFDHVIQPIGDIVDLNSDFSGVHEIDRTNCPTYKEALDVFLSENLINKNSILIGHGLENDLNVMRLFHNKVIDTAILYSRTKFKVSLKNLAFEVLSRKIQNGEHDSSQDAIATMDVVKVKIGISPSQNKWEK	binds
Tfc7 (protein, UniProt Q12415 1-435) MVVNTIYIARHGYRSNWLPEGPYPDPLTGIDSDVPLAEHGVQQAKELAHYLLSLDNQPEAAFASPFYRCLETVQPIAKLLEIPVYLERGIGEWYRPDRKPVIPVPAGYEILSKFFPGVISQEWDSTLTPNEKGETEQEMYMRFKKFWPLFIERVEKEYPNVECILLVTHAASKIALGMSLLGYDNPRMSLNENGDKIRSGSCSLDKYEILKKSYDTIDETDDQTSFTYIPFSDRKWVLTMNGNTEFLSSGEEMNWNFDCVAEAGSDADIKKRQMTKKTSSPIPEADDQTEVETVYISVDIPSGNYKERTEIAKSAILQYSGLETDAPLFRIGNRLYEGSWERLVGTELAFPNAAHVHKKTAGLLSPTEENETTNAGQSKGSSTANDPNIQIQEEDVGLPDSTNTSRDHTGDKEEVQSEKIYRIKERIVLSNVRPM	binds
Gga1 (protein, UniProt Q06336 1-557) MPQRIELTSEPVRKPRSTESSLLRKIQRACRSTLPEPDLGLNLDVADYINSKQGATPREAVLAIEKLVNNGDTQAAVFALSLLDVLVKNCGYSIHLQISRKEFLNDLVKRFPEQPPLRYSKVQQMILEAIEEWYQTICKHASYKDDLQYINDMHKLLKYKGYTFPKVGSENLAVLRPNDQLRTPSELQEEQERAQAAKLEELLRSGKPDDLKEANKLMKIMAGFKDDTKVAVKQAINNELNKLKRKADLFNEMLTSADEPDLENEAIQELYGDLKSAQPKFKKLIEEERDDDALVSNLSKFNDLVIQLLKRYKSIKGMKEEELNVPDTNEPAKELNLIDFDDDTTANTPSVTSPSKSLQPFDDLLGDFNKVSLSSPKSPQENDTVVDILGDAHSKSSGIDLLDFDSQPGESKTALSAYSNSIVLPNGLLNSSSNSKEITAQSQRHILNQSDHLRIDYELTRESMTKLRLVIFYSNISSDPITNFALLVASPKGTTLSLQPQSGNMLQSNSRDGIKQIASVEGISVNLGKPIKLKWKANYCTKGDSKEESGTTSLPTI	binds
